PubChem BioAssay AID1259308 – NCATS – 2017

Assay: 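Candidate targets for better recombinant protein yield in mammalian cells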 (primary screen)
Cell system: human HEK293 embryonic kidney cells stably expressing firefly luciferase (HEK-CMV-Luc2-Hygro)
Reagent: single siRNA against human genes, 0.8 pmol siRNA per well
Time to read-out: 72 h
Read-out: 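Luciferase light (ONE-Glo) measured on one replicate plate set and viability (CellTiter-Glo) on the other, scaled to a negative control siRNA, with robust z-scores and luciferase per cell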
Scale: total luciferase, z-score: higher = more reporter protein produced
Call rule: 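An siRNA counts as active if its total luciferase robust z-score exceeds 3; genes with two or more such siRNAs out of three were retested with fresh siRNAs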
Calls: active = raised luciferase; inactive = no rise
The deposit covers about 59,000 reagents; below is a part drawn at random. About 1,510 of them (2.6%) were called active. 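Calls use total luciferase alone and ignore viability, so some active siRNAs may act by altering cell number.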 A number with no mark means an inactive call. The numbers tell different reagents against one gene apart. Not all columns of the deposit are shown.

total luciferase, z-score, by target gene and reagent
STUB1: #1 0.522; #2 -0.0686; #3 -0.282
OVOL1: #1 0.286; #2 0.0878; #3 -0.879
AMACR: #1 0.353; #2 3.72 (active); #3 1.05
WFDC10B: #1 -1.08; #2 3.31 (active); #3 -0.48

2 entries from above, arranged by “total luciferase, z-score”, lowest first.
target gene	reagent	total luciferase, z-score
STUB1	2	-0.0686
STUB1	1	0.522

More records:
total luciferase, z-score, by target gene and reagent
MICB: #1 0.472; #2 -0.141; #3 0.545
SSX2IPP1: #1 0.784; #2 2.03; #3 1.65
SCAMP1-AS1: #1 0.457; #2 -0.14; #3 -0.913
PGLYRP3: #1 0.993; #2 -0.408; #3 -1.03
